Test results from patent publication US20240042019.
For part of these data: No signal at the amounts used counts as a negative. For part of these data: Protein sequences can lack the tags named with them. A weaker result is weaker than the reference pair of the same experiment.

The chains behind the UniProt entries cited, without tags or fusion partners. Residues count along the entry.
UniProt Q9NYK1, 27-1049: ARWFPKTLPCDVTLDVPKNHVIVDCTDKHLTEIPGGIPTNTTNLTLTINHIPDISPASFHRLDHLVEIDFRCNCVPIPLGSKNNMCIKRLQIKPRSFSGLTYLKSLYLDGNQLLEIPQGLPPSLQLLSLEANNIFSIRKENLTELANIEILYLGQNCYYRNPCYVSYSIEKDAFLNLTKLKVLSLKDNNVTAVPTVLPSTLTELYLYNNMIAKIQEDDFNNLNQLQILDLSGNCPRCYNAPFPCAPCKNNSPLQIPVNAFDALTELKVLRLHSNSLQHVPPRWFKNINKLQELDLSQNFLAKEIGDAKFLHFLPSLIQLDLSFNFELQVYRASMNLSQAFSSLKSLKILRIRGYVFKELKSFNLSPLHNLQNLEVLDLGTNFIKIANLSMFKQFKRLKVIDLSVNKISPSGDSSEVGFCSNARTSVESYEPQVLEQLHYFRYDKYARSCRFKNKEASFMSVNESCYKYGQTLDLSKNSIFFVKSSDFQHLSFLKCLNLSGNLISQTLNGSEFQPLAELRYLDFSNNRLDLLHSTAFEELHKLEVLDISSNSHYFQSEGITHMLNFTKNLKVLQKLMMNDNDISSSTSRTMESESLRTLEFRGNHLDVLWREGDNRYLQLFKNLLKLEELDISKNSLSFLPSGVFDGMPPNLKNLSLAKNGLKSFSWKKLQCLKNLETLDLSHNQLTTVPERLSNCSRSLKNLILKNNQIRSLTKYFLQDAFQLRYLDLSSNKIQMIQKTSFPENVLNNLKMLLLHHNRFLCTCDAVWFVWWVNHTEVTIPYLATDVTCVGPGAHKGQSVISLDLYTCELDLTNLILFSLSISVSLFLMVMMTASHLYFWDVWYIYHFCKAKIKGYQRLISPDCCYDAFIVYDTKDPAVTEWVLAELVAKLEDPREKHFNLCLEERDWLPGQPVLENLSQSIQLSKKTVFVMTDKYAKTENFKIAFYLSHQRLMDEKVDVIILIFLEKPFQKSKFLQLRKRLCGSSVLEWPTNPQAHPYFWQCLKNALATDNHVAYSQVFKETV
UniProt O00584, 25-256: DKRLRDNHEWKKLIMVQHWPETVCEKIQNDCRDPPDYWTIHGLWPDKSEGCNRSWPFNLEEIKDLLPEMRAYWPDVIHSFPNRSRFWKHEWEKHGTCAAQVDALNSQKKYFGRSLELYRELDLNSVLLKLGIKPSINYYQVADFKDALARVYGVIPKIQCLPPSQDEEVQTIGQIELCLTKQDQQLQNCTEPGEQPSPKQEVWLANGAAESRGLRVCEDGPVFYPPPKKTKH

Key:
[1] = biological target: TLR7 (Homo sapiens) (UniProt Q9NYK1); test: activity in cells; conditions: protein in cells, protein details: endogenous in human PBMC (pDC)
[2] = biological target: T1, TLR8 (Homo sapiens) (UniProt Q9NR97); test: activity in cells; conditions: protein in cells, protein details: endogenous in human PBMC (monocytes)
T1 sequence (looked up, limits assumed): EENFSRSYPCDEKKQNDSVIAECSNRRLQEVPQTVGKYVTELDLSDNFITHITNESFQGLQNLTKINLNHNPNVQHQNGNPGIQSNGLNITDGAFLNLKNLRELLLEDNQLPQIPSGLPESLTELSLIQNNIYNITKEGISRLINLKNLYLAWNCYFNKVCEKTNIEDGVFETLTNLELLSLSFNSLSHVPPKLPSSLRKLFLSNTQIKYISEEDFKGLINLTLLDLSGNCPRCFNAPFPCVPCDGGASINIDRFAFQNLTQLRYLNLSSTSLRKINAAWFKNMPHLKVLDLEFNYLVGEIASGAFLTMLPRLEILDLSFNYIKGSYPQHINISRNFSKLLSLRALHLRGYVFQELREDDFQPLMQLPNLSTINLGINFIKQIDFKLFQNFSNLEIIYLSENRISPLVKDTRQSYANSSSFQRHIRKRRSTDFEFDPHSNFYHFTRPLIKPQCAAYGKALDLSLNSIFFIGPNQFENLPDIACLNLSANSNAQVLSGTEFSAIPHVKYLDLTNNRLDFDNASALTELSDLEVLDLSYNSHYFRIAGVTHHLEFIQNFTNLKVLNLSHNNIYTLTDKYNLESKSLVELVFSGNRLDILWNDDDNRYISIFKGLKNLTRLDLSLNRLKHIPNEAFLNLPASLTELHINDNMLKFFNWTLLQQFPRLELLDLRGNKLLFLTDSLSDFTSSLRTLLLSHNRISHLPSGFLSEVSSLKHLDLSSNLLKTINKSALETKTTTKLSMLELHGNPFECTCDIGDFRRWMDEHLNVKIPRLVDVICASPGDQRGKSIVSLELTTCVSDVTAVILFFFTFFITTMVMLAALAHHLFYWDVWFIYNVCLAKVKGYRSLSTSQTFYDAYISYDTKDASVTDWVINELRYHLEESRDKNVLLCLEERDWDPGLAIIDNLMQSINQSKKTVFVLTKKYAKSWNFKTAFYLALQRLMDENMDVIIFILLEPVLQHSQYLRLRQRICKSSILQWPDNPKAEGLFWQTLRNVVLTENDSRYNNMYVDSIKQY

[3] = biological target: RNase T2 (UniProt O00584); test: enzyme reaction in vitro; conditions: purified recombinant protein, protein details: Origene recombinant
[4] = negative control, no cytokine response, only the site is given

## CACACACACACACACACACA [pCA]
[1]; [4]
  functional effect: not active
[2]; [4]
  functional effect: not active

## CAGACCUUCCAGACCUUC [ORN7001]
[1]; DOTAP, none or minor with p-L-arginine
  functional effect: active
[2]; DOTAP
  functional effect: active

## CAGACCUUCCAGACCUUC [ORN7002]
[1]; 2'-OMe first U of each CUUC, DOTAP, reduced vs ORN7001, variant of ORN7001
  functional effect: less active

## CAGACCUUCCAGACCUUC [ORN7003]
[1]; 2'-F first U of each CUUC, DOTAP, maintained vs ORN7001, variant of ORN7001
  functional effect: active
[2]; 2'-F first U of each CUUC, DOTAP, TLR8 activity eliminated, variant of ORN7001
  functional effect: not active

## CAGACCUUCCAGACCUUC [ORN7004]
[1]; PS within each CUUC motif, DOTAP, mildly increased vs ORN7001, variant of ORN7001
  functional effect: active
[2]; PS within each CUUC motif, DOTAP, markedly increased vs ORN7001, variant of ORN7001
  functional effect: active

## CCGAGCCGCUUUUCCC [ORN7013]
[3]; full PS, 0.5 ug/ml RNase T2, 3-12 min, degraded faster than modified
  activity on this sequence: active
[1]; full PS, IFN-a from PBMC, p-L-arginine, limited TLR7 selectivity, no TLR7 activation with DOTAP
  functional effect: active
[2]; full PS, TNF-a from PBMC, p-L-arginine
  functional effect: active

## CCGAGCCGCUUUUCCC [ORN7014]
[3]; 2'-OMe U10 and U12, PS except PO 3' of each modified U, slower than ORN7013, variant of ORN7013
  activity on this sequence: less active
[1]; 2'-OMe U10 and U12, PS except PO 3' of each modified U, IFN-a maintained or lower vs ORN7013, p-L-arginine, variant of ORN7013
  functional effect: active
[2]; 2'-OMe U10 and U12, PS except PO 3' of each modified U, TNF-a greatly reduced vs ORN7013, p-L-arginine, variant of ORN7013
  functional effect: less active

## CCGAGCCGCUUUUCCC [ORN7015]
[3]; 2'-F U10 and U12, PS except PO 3' of each modified U, slower than ORN7013, variant of ORN7013
  activity on this sequence: less active
[1]; 2'-F U10 and U12, PS except PO 3' of each modified U, IFN-a maintained or lower vs ORN7013, p-L-arginine, variant of ORN7013
  functional effect: active
[2]; 2'-F U10 and U12, PS except PO 3' of each modified U, TNF-a greatly reduced vs ORN7013, p-L-arginine, variant of ORN7013
  functional effect: less active

## CCGAGCCGCUUUUCCC [ORN7016]
[3]; 2'-OMe U10, 2'-F U12, PS except PO 3' of each modified U, slower than ORN7013, variant of ORN7013
  activity on this sequence: less active
[1]; 2'-OMe U10, 2'-F U12, PS except PO 3' of each modified U, TLR7-selective but weakly active, p-L-arginine, variant of ORN7013
  functional effect: active
[2]; 2'-OMe U10, 2'-F U12, PS except PO 3' of each modified U, TNF-a greatly reduced vs ORN7013, p-L-arginine, variant of ORN7013
  functional effect: less active

## CCGAGCCGCUUUUCCC [ORN7018]
[1]; 2'-OMe U10 and U12, PS 3' of U11 and U13 only, no activity with p-L-arginine, low or none with DOTAP, variant of ORN7013
  functional effect: not active

## CCGAGCCGCUUUUCCC [ORN7019]
[2]; 2'-F U10 and U12, PS 3' of U11 and U13 only, DOTAP, TLR8 activity only at 2 ug/ml, variant of ORN7013
  functional effect: less active

## CCGAGCCGCUUUUCCC [ORN7020]
[1]; 2'-OMe U10, 2'-F U12, PS 3' of U11 and U13 only, no activity with p-L-arginine, low or none with DOTAP, variant of ORN7013
  functional effect: not active

## CCGAGCCGCUUUUCCC [ORN7021]
[1]; 2'-F U10, 2'-OMe U12, PS 3' of U11 and U13 only, no activity with p-L-arginine, low or none with DOTAP, variant of ORN7013
  functional effect: not active

## CCGAGCCGCUUUUCCC [ORN7022]
[1]; PS only within C*U*U*U*U*C motif, DOTAP 0.6 and 2 ug/ml, no TLR7 activity with p-L-arginine, variant of ORN7013
  functional effect: active
[2]; PS only within C*U*U*U*U*C motif, DOTAP 0.6 and 2 ug/ml, variant of ORN7013
  functional effect: active

## CCUUCUUCUUCUUCUUCUUC [ORN7009]
[3]; 0.2 ug/ml RNase T2, 3-12 min, degraded faster than modified
  activity on this sequence: active
[2]; DOTAP
  functional effect: active

## CCUUCUUCUUCUUCUUCUUC [ORN7010]
[3]; 2'-OMe first U of each UUC, strong protection vs ORN7009, variant of ORN7009
  activity on this sequence: less active
[2]; 2'-OMe first U of each UUC, little to no TNF-a with 2'3' cGMP, variant of ORN7009
  functional effect: not active

## CCUUCUUCUUCUUCUUCUUC [ORN7011]
[3]; 2'-F first U of each UUC, strong protection vs ORN7009, variant of ORN7009
  activity on this sequence: less active
[2]; 2'-F first U of each UUC, little to no TNF-a with 2'3' cGMP, no TLR8 activity with DOTAP, variant of ORN7009
  functional effect: not active

## CCUUCUUCUUCUUCUUCUUC [ORN7012]
[3]; full PS, strong protection vs ORN7009, variant of ORN7009
  activity on this sequence: less active
[2]; full PS, DOTAP, increased vs ORN7009, variant of ORN7009
  functional effect: active

## CGGCUCGGCAGAAGCCGGGCC [ORN7023F]
[1]; 2'-F C4, increased activity vs ORN7023, selectivity maintained, variant of ORN7023
  functional effect: active

## CGGCUCGGCAGAAGCCGGGCC [ORN7023Ome]
[1]; 2'-OMe C4, increased activity vs ORN7023, selectivity maintained, variant of ORN7023
  functional effect: active

## CGGCUCGGCAGAAGCCGGGCC [ORN7023]
[1]; IFN-a, p-L-arginine, TLR7-selective
  functional effect: active

## CGGCUCGGCAGAAGCCGGGCC [ORN7024]
[1]; full PS, reduced activity vs ORN7023, variant of ORN7023
  functional effect: less active

## GGUUGUUGUUGUUGUUGUUG [pU2G]
[1]; positive control, DOTAP
  functional effect: active
[2]; positive control, DOTAP
  functional effect: active

## UCUCUCUCUCUCUCUCUCUC [ORN7005]
[2]; DOTAP
  functional effect: active

## UCUCUCUCUCUCUCUCUCUC [ORN7006]
[2]; 2'-OMe all C except 3' terminal C, little to no TNF-a with 2'3' cGMP, variant of ORN7005
  functional effect: not active

## UCUCUCUCUCUCUCUCUCUC [ORN7007]
[2]; 2'-F all C except 3' terminal C, little to no TNF-a with 2'3' cGMP, variant of ORN7005
  functional effect: not active

## UCUCUCUCUCUCUCUCUCUC [ORN7008]
[2]; full PS, DOTAP, increased vs ORN7005, variant of ORN7005
  functional effect: active
